Measured data: PubChem BioAssay AID1508597 (Cure First, 2020)
Test: 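Knock-downs altering ovarian cancer cell survival with or without PARP inhibitor rucaparib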 (primary screen). Cell system: human ovarian carcinoma lines grown from tumours: OCI-P5x (papillary serous) and OCI-C5x (clear cell). Reagents: siRNA pool against human genes, 1.25 pmol siRNA per well. Time to read-out: 72 h or 96 h, depending on the cell culture. Treatment: rucaparib 20 µM (about IC30) or vehicle, present until read-out. Read-out: 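Luminescent ATP-based viability assay read 72 or 96 h after transfection, depending on culture, given as normalised percent viability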. Direction: viability, normalised: higher = more viable cells remaining. Rule for the call: 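Active when normalised viability falls below 80 percent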. Meaning of the calls: active = viability under 80%; inactive = viability 80% or more.
The whole screen tested about 2,100 reagents; below is a random part of them. 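Calls flag viability under 80% in either arm, not effects specific to rucaparib; the reference for percent is not stated.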 A number with no mark means an inactive call. The record does not give: the 100% reference.

DDX20 (DEAD-box helicase 20), rucaparib or vehicle Rucaparib, cell line OCI-C5x (clear cell), technical replicate 1 → viability, normalised (%) = 57.1 (active)
DDX20 (DEAD-box helicase 20), rucaparib or vehicle Rucaparib, cell line OCI-C5x (clear cell), technical replicate 2 → viability, normalised (%) = 50.6 (active)
DDX20 (DEAD-box helicase 20), rucaparib or vehicle Rucaparib, cell line OCI-C5x (clear cell), technical replicate 3 → viability, normalised (%) = 44.2 (active)
DDX20 (DEAD-box helicase 20), rucaparib or vehicle Rucaparib, cell line OCI-P5x (serous), technical replicate 1 → viability, normalised (%) = 67.9 (active)
DDX20 (DEAD-box helicase 20), rucaparib or vehicle Rucaparib, cell line OCI-P5x (serous), technical replicate 2 → viability, normalised (%) = 90.1
DDX20 (DEAD-box helicase 20), rucaparib or vehicle Rucaparib, cell line OCI-P5x (serous), technical replicate 3 → viability, normalised (%) = 67.6 (active)
DDX20 (DEAD-box helicase 20), rucaparib or vehicle Vehicle, cell line OCI-C5x (clear cell), technical replicate 1 → viability, normalised (%) = 36.8 (active)
DDX20 (DEAD-box helicase 20), rucaparib or vehicle Vehicle, cell line OCI-C5x (clear cell), technical replicate 2 → viability, normalised (%) = 59.2 (active)
DDX20 (DEAD-box helicase 20), rucaparib or vehicle Vehicle, cell line OCI-C5x (clear cell), technical replicate 3 → viability, normalised (%) = 50.9 (active)
DDX20 (DEAD-box helicase 20), rucaparib or vehicle Vehicle, cell line OCI-P5x (serous), technical replicate 1 → viability, normalised (%) = 73.3 (active)
DDX20 (DEAD-box helicase 20), rucaparib or vehicle Vehicle, cell line OCI-P5x (serous), technical replicate 2 → viability, normalised (%) = 71.6 (active)
DDX20 (DEAD-box helicase 20), rucaparib or vehicle Vehicle, cell line OCI-P5x (serous), technical replicate 3 → viability, normalised (%) = 69.7 (active)
PRKAG1 (protein kinase AMP-activated non-catalytic subunit gamma 1), rucaparib or vehicle Rucaparib, cell line OCI-C5x (clear cell), technical replicate 1 → viability, normalised (%) = 75.3 (active)
PRKAG1 (protein kinase AMP-activated non-catalytic subunit gamma 1), rucaparib or vehicle Rucaparib, cell line OCI-C5x (clear cell), technical replicate 2 → viability, normalised (%) = 75.4 (active)
PRKAG1 (protein kinase AMP-activated non-catalytic subunit gamma 1), rucaparib or vehicle Rucaparib, cell line OCI-C5x (clear cell), technical replicate 3 → viability, normalised (%) = 80.3
PRKAG1 (protein kinase AMP-activated non-catalytic subunit gamma 1), rucaparib or vehicle Rucaparib, cell line OCI-P5x (serous), technical replicate 1 → viability, normalised (%) = 123
PRKAG1 (protein kinase AMP-activated non-catalytic subunit gamma 1), rucaparib or vehicle Rucaparib, cell line OCI-P5x (serous), technical replicate 2 → viability, normalised (%) = 118
PRKAG1 (protein kinase AMP-activated non-catalytic subunit gamma 1), rucaparib or vehicle Rucaparib, cell line OCI-P5x (serous), technical replicate 3 → viability, normalised (%) = 109
PRKAG1 (protein kinase AMP-activated non-catalytic subunit gamma 1), rucaparib or vehicle Vehicle, cell line OCI-C5x (clear cell), technical replicate 1 → viability, normalised (%) = 82.2
PRKAG1 (protein kinase AMP-activated non-catalytic subunit gamma 1), rucaparib or vehicle Vehicle, cell line OCI-C5x (clear cell), technical replicate 2 → viability, normalised (%) = 85.3
PRKAG1 (protein kinase AMP-activated non-catalytic subunit gamma 1), rucaparib or vehicle Vehicle, cell line OCI-C5x (clear cell), technical replicate 3 → viability, normalised (%) = 64.7 (active)
PRKAG1 (protein kinase AMP-activated non-catalytic subunit gamma 1), rucaparib or vehicle Vehicle, cell line OCI-P5x (serous), technical replicate 1 → viability, normalised (%) = 112
PRKAG1 (protein kinase AMP-activated non-catalytic subunit gamma 1), rucaparib or vehicle Vehicle, cell line OCI-P5x (serous), technical replicate 2 → viability, normalised (%) = 106
PRKAG1 (protein kinase AMP-activated non-catalytic subunit gamma 1), rucaparib or vehicle Vehicle, cell line OCI-P5x (serous), technical replicate 3 → viability, normalised (%) = 86.2

Part of the list above in another layout:
PRKAG1 (protein kinase AMP-activated non-catalytic subunit gamma 1), rucaparib or vehicle Rucaparib, cell line OCI-P5x (serous), technical replicate 3
- viability, normalised (%): 109

PRKAG1 (protein kinase AMP-activated non-catalytic subunit gamma 1), rucaparib or vehicle Vehicle, cell line OCI-C5x (clear cell), technical replicate 1
- viability, normalised (%): 82.2

PRKAG1 (protein kinase AMP-activated non-catalytic subunit gamma 1), rucaparib or vehicle Vehicle, cell line OCI-C5x (clear cell), technical replicate 2
- viability, normalised (%): 85.3
